Results: the supplement of paper PMC7024190
Some of the results follow. Repeats in this data set agree poorly, so a single value says little.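 The cells were human embryonic kidney cells carrying a Renilla luciferase gene, driven by the HSV-TK promoter, on a plasmid put in briefly by transfection. This is the first-round screen of about ten thousand compounds, looking for ones that raise reporter output.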

Legend:
[1] = tested on: HEK 293FT; assay: log relative Renilla luciferase luminescence (reporter expression vs reference, reference not stated) (log (base not stated)); higher = higher recombinant reporter expression; conditions: 10 µM; time after transfection 48 h
Method: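 HEK 293FT cells transiently transfected with pRL-TK (Renilla luciferase) were treated with compounds at 10 uM and luminescence was read about 42 h later. Values are log relative Renilla luminescence (log base and reference not stated). Single-pass screen; 2080 natural products library.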

[2] = tested on: HEK 293FT; assay: as above; conditions: 10 µM; time after transfection 48 h; remark: listed apart in the source

| SMILES | log [1] | log [2] |
| --- | --- | --- |
| OC[C@@H](O)C(O)[C@H](O)CO [D-arabinitol] | 0.0541 |  |
| COc1ccc(-c2cc(=O)c3c(O)c(OC)c(O)cc3o2)cc1 [Pectolinarigenin] | -0.117 |  |
| CC(C)Oc1ccc2c(=O)c(-c3ccccc3)coc2c1 |  | -0.196 |
| NNCCc1ccccc1 |  | 0.114 |
| CC(=O)OCC(=O)NCCCOc1cccc(CN2CCCCC2)c1 |  | -0.216 |
| CC[C@@]1(O)C(=O)OCc2c1cc1n(c2=O)Cc2cc3c(CN(C)C)c(O)ccc3nc2-1 |  | -0.971 |
| Cc1ncc([N+](=O)[O-])n1CCO |  | 0.158 |
| CN1CCC(=C2c3ccccc3CCc3sccc32)CC1 [Pizotyline] |  | -0.743 |
| O=C1c2cccc3c2[C@H](CCC3)CN1[C@@H]1CN2CCC1CC2 |  | 0.261 |
| CC(C)(O)c1ccccc1CC[C@@H](SCC1(CC(=O)O)CC1)c1cccc(/C=C/c2ccc3ccc(Cl)cc3n2)c1 |  | -0.353 |
| O=c1c(-c2ccccc2)c1-c1ccccc1 [diphenylcyclopropenone] |  | 0.0644 |
| CC12CC3CC(C)(C1)CC(N)(C3)C2 |  | 0.0207 |
| CCOc1cc(CC(=O)N[C@@H](CC(C)C)c2ccccc2N2CCCCC2)ccc1C(=O)O |  | -0.13 |
| COc1ccc2c3c1O[C@H]1C[C@@H](O)C=C[C@@]31CCN(C)C2 [Galanthamine] |  | 0.0946 |
| COC1=C(OC)C(=O)C(CCCCCCCCCCO)=C(C)C1=O |  | -0.0818 |
| CCOC(=O)c1ccc(OC(=O)CCCCCNC(=N)N)cc1 |  | -0.089 |
| COC(=O)C1=C(C)NC(C)=C(C(=O)OCC(C)C)C1c1ccccc1[N+](=O)[O-] (stereo unspecified) |  | 0.019 |
| CN1CCCC(n2nc(Cc3ccc(Cl)cc3)c3ccccc3c2=O)CC1 (stereo unspecified) |  | 0.0325 |
| O=C(O[C@@H]1Cc2c(O)cc(O)cc2O[C@@H]1c1cc(O)c(O)c(O)c1)c1cc(O)c(O)c(O)c1 [Epigallocatechin gallate] |  | 0.0917 |
| CCCc1nc2c(C)cc(-c3nc4ccccc4n3C)cc2n1Cc1ccc(-c2ccccc2C(=O)O)cc1 |  | -0.389 |
| CCC(=O)NS(=O)(=O)c1ccc(-c2c(-c3ccccc3)noc2C)cc1 |  | 0.172 |

| SMILES | log [1] | log [2] |
| --- | --- | --- |
| C#C[C@]1(O)CC[C@H]2[C@@H]3CCC4=CC(=O)CC[C@@H]4[C@H]3CC[C@@]21CC |  | 0.0336 |
| Nc1c2c(nc3ccccc13)CCCC2 |  | 0.0133 |
| N#Cc1ccc(C(c2ccc(C#N)cc2)n2cncn2)cc1 |  | -0.00859 |
| COc1ccc(CC(C)NCC(O)c2ccc(O)c(NC=O)c2)cc1 (stereo unspecified) |  | -0.0978 |
| Cc1cccc(C)c1NC(=O)C1CCCCN1C (stereo unspecified) |  | 0.109 |
| CC(=O)CCCCn1cnc2c1c(=O)n(C)c(=O)n2C |  | 0.106 |
| COC(=O)C[C@](O)(CCCC(C)(C)O)C(=O)O[C@@H]1C(OC)=C[C@]23CCCN2CCc2cc4c(cc2[C@H]13)OCO4 |  | -1.45 |
| Cc1onc(-c2ccccc2)c1-c1ccc(S(N)(=O)=O)cc1 |  | -0.019 |
| CO[C@H]1/C=C/O[C@@]2(C)Oc3c(C)c(O)c4c(c3C2=O)C2=NC3(CCN(CC(C)C)CC3)NC2=C(NC(=O)/C(C)=C\C=C\[C@H](C)[C@H](O)[C@@H](C)[C@@H](O)[C@@H](C)[C@H](OC(C)=O)[C@@H]1C)C4=O |  | 0.00924 |
| CCOC(=O)[C@H](CCc1ccccc1)N[C@H]1CCc2ccccc2N(CC(=O)O)C1=O |  | -0.143 |
| CNCCCCOc1ccccc1Cc1ccccc1 [Bifemelane] |  | 0.101 |
| Nc1nc(Cl)nc2c1ncn2[C@H]1C[C@H](O)[C@@H](CO)O1 |  | -0.378 |
| O=C(c1ccc(F)cc1)C1CCN(CCn2c(=S)[nH]c3ccccc3c2=O)CC1 [Altanserin] |  | -0.321 |
| CC(COc1ccccc1Cc1ccccc1)N1CCCCC1 (stereo unspecified) |  | -0.0336 |
| CN1CCC(=C2c3ccccc3C=Cc3ccccc32)CC1 |  | -0.76 |
| Cc1[nH]c(=O)c(C#N)cc1-c1ccncc1 |  | -0.0526 |
| NC1CCN(c2cccc(Cl)n2)CC1 |  | 0.071 |
| COc1ccc(C2CNC(=O)C2)cc1OC1CCCC1 (stereo unspecified) |  | -0.101 |
| OCCN1CCN(CCCN2c3ccccc3Sc3ccc(C(F)(F)F)cc32)CC1 |  | 0.115 |
| CC(C)(C)NCC(O)c1ccc(O)c(CO)c1 (stereo unspecified) |  | 0.054 |

Ordered by heavy-atom count (falling): part of the list above

| SMILES | log [1] | log [2] |
| --- | --- | --- |
| COC(=O)C[C@](O)(CCCC(C)(C)O)C(=O)O[C@@H]1C(OC)=C[C@]23CCCN2CCc2cc4c(cc2[C@H]13)OCO4 |  | -1.45 |
| O=C(c1ccc(F)cc1)C1CCN(CCn2c(=S)[nH]c3ccccc3c2=O)CC1 [Altanserin] |  | -0.321 |
| NC1CCN(c2cccc(Cl)n2)CC1 |  | 0.071 |
